Data published in PMC3146489.
Results are given in words; binding and its absence hold for the method and conditions named. For some assays here: Binding seen in cells or lysates may run through a third protein. Some results given as binding are weak or reduced against the parent protein; the word gives no strength.

What was measured:
FLAG-p53 = FLAG-p53 (UniProt P04637); assay: co-IP; HEK 293 cells co-transfected, with or without 10 µM BMH crosslinker for 10 min at room temperature before lysis; anti-FLAG affinity gel overnight at 4°C; IP buffer 50 mM Tris-HCl pH 7.0, 150 mM NaCl, 0.5 mM DTT, 1% NP-40; Western with Myc or FLAG antibodies
[1] = target: T1, Gal4-DBD-PR-Set7 N-terminal(1-191) bait (human) (UniProt Q9NQR1); assay: two-hybrid; … GAL4 Two-Hybrid System 3; Gal4-DBD-PR-Set7 baits and pGADT7-AD-UBC9 co-transformed into AH109 yeast; growth on TDO and QDO + X-alpha-Gal (HIS3, ADE2, lacZ/MEL1 reporters)
T1 sequence: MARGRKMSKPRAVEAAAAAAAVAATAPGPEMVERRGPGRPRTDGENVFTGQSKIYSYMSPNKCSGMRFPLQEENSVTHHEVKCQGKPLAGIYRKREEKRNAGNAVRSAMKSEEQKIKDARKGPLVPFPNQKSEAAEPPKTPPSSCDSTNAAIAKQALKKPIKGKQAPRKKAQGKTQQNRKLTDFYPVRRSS

binding (FLAG-p53) | binding [1] | Substance
binds |  | Myc-tagged UBC9 (from UniProt P63279 1-158) (enzyme)
 | binds | pGADT7-AD-UBC9 (first 126 amino acids of human UBC9, clone recovered from the screen) (from UniProt P63279 1-126) (domain or fragment)
